These are yes or no findings as the source states them, for the method shown. Binding seen in cells or lysates may run through a third protein. Some entries that bind do so weakly or less than the wild type. Where a sequence is shown, tags or fusion partners need not be part of it.
What was measured:
[1] = biological target: T1, Endogenous KIF27-GFP (mouse Kif27^GFP knock-in allele) (mouse) (UniProt Q7M6Z4); test: co-IP
T1 sequence: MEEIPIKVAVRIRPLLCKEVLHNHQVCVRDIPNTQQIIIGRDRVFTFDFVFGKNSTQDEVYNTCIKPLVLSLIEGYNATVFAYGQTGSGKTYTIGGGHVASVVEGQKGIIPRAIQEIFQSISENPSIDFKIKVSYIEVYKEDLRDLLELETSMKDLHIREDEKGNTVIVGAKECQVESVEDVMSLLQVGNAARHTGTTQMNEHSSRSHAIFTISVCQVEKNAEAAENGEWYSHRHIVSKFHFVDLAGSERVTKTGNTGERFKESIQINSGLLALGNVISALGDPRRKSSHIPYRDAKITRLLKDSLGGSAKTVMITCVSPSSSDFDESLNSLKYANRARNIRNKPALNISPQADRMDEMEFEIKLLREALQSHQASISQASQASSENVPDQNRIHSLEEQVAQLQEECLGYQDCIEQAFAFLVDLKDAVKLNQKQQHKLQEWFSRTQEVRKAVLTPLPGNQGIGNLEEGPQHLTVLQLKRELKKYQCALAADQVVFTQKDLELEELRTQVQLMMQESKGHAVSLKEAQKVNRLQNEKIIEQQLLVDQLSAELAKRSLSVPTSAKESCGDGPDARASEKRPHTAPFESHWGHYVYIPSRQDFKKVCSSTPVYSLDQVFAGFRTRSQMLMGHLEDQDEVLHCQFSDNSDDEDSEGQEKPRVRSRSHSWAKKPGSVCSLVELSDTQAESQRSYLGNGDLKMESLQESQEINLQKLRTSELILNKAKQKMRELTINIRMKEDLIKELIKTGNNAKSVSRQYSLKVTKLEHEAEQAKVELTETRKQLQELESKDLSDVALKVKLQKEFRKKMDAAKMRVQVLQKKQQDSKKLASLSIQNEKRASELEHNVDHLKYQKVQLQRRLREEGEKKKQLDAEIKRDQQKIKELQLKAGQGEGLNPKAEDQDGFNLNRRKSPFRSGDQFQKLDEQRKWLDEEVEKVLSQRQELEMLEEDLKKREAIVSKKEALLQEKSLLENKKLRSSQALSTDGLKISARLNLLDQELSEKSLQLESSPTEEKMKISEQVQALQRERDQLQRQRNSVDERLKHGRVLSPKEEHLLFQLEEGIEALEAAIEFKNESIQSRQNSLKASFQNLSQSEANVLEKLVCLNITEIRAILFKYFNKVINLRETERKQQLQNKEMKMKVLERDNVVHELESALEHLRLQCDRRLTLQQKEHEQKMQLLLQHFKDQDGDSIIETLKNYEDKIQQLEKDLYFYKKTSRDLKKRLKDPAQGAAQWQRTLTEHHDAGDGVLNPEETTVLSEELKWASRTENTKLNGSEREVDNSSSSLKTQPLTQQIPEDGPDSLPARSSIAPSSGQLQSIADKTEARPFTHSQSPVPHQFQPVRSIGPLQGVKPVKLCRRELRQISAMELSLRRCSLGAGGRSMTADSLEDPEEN

[2] = biological target: T2, HA-tagged full-length human CEP162 (human) (UniProt Q5TB80); test: co-IP
T2 sequence: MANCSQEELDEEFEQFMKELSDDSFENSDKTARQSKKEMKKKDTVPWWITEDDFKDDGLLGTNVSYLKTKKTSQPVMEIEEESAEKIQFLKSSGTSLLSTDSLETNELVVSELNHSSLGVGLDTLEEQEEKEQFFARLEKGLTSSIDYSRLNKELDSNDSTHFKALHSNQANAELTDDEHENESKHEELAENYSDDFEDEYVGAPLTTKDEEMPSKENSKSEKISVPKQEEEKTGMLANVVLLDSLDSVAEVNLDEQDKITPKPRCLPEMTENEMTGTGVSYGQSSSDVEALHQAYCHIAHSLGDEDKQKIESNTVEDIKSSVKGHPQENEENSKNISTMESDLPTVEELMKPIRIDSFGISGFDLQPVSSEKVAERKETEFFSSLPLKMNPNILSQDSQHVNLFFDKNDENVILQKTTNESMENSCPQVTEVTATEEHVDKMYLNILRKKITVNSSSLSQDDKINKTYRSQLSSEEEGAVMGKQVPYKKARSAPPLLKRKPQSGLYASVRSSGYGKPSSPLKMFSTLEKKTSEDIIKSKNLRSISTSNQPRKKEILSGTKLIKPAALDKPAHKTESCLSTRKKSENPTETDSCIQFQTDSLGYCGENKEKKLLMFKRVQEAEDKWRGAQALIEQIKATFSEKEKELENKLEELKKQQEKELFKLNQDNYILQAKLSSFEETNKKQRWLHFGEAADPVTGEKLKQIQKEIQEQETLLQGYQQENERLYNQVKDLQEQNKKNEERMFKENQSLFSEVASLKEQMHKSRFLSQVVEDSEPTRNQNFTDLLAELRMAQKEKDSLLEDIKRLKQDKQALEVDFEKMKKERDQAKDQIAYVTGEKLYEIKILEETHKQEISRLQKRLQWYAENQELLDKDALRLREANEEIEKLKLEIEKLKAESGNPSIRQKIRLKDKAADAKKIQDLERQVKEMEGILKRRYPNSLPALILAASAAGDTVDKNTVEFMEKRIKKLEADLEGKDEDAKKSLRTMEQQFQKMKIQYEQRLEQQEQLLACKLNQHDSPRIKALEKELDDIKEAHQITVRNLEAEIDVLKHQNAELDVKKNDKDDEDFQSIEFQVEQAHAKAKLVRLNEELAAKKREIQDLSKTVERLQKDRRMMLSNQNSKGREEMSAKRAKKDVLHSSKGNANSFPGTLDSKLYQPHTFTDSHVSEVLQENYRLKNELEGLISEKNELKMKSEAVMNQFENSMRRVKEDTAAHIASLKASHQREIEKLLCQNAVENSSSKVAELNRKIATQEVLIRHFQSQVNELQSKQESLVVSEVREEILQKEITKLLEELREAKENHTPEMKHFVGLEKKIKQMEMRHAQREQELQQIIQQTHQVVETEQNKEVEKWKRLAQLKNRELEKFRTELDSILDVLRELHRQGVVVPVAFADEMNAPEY

| binding [1] | binding [2] | Binder |
| --- | --- | --- |
| binds | – | Endogenous CEP162 (mouse testis) (protein, UniProt Q6ZQ06 1-1403) MAHYFKVDLDEEFERFMKELSDDSFENSNKTPRQPNEDNKEMKKKDPVPWWIAEDDFEDDGLLGTNVSYLKTKKTYQPVMDTEEESAEKVQFLKSSGTSILSVDSLEANELVVSEPHHSTLGLGLDTLEEQEEKEQFFARLEKGLTSSIDYSKLNQELDSDDSAQLKALHRYPRNTEPAEDGCENESEQEELPETYSDDFEDAEDADDPLITKDEETHPKENSESGKDSFPKQEEEKTGMLANVVLLDSFDSVEDVGLSSQEKATPKAKAPPEITDDGPAETGVPYGQSSGDTEALHQAYCHVAHSLGDTGEPRIEASTVQTVRSSIKDGLQENEESSKNVSTTESDLPTVEELMQPIRIDSYGIRAFDLQPISLKKATDSKEAESVGSLPLKTNTNTVSQDTRHAIQFPHKHDESVVLHRTADEGMGSSCPATEEHLDKMYLEILKKKTSVNPSLLPQDDKMNQTSRSQLGAGEEVPVIGKQVPCKKARSTPSLPKRKPQSGLYASARSSGYGKPSSPLQLFSALEKKTSKDNTKTKSVRSIPTSNQFRKREILSGTKLIKPAASNKPSPHREGSPATPKRPEDPSDDSFVQLQTEPLGSYGGNREKELLMLKRAQDAEEKWTGAQALMEQMKMTFCEKEKELENTVESLKRQQERELFRLNQENYILQAKLSSFEETSRKQRWLQFGETSDPLTGEKLKQIQKEIQEQETLLQGYQQENERLYNQVKDLQEQNKKNEERMFKENQNLFSELASLKEQMHKNHFLSQAVENTEPTKNQSFTDLLAELRAAQKEKNHLMEDIKRLKQDKQALEVDLEKVKRERDQAKDQIAYATGEKLYEIKILEETHKQEVSRLQKRLQWYAENQELLDRDAARLREANEETEKLRLEIEKLKTESGSPATQQRLRSKERALDAKRIQDLERQVKEMEGILKRRYPNSLPALILAASAAGDSVDRNTVEFMERRIKKLEADLEGKDEEAKKSLRTMEQQFQKMKIQYEQRLEEQEQLLAHRQKEAPQSQRNSSSRLKALETELGDIKEAHQITVRKLEAEIDVLKHQNADLEHKKNDKGDQGLQSIEFQVEQAQARAKLARLNEELAAKGREIQDLTKTVERLQKERRMMLSRQIPRSREETAAKRLKKDPNRGHGNAFPETLDGKLYHPHTFTDSHISEVLEENYRLRSELEGLILERSKLKMESEAAVCQLENSMKRVKDDAAAHIASLKASHEREIEKLLCQNAIENSSSKVAELNRKIATQEVLLKHFQGQVNELQGKQESLAVSQVREEILQKQITKLLEELKEAKENHTPEMKHFMGLERKIKQMEMRHRQREQELQQIIQQTRQVVETEQNKEVEKWKRLAQLKNRELDKFRTELDSILDVLRELHRQGVVVPMALAGEENTAEF |
| – | binds | GFP-tagged KIF27-CC2 (aa 694-1401) (domain or fragment, UniProt Q86VH2 694-1401) EDLKIDCLQESQELNLQKLKNSERILTEAKQKMRELTINIKMKEDLIKELIKTGNDAKSVSKQYSLKVTKLEHDAEQAKVELIETQKQLQELENKDLSDVAMKVKLQKEFRKKMDAAKLRVQVLQKKQQDSKKLASLSIQNEKRANELEQSVDHMKYQKIQLQRKLREENEKRKQLDAVIKRDQQKIKEIQLKTGQEEGLKPKAEDLDACNLKRRKGSFGSIDHLQKLDEQKKWLDEEVEKVLNQRQELEELEADLKKREAIVSKKEALLQEKSHLENKKLRSSQALNTDSLKISTRLNLLEQELSEKNVQLQTSTAEEKTKISEQVEVLQKEKDQLQKRRHNVDEKLKNGRVLSPEEEHVLFQLEEGIEALEAAIEYRNESIQNRQKSLRASFHNLSRGEANVLEKLACLSPVEIRTILFRYFNKVVNLREAERKQQLYNEEMKMKVLERDNMVRELESALDHLKLQCDRRLTLQQKEHEQKMQLLLHHFKEQDGEGIMETFKTYEDKIQQLEKDLYFYKKTSRDHKKKLKELVGEAIRRQLAPSEYQEAGDGVLKPEGGGMLSEELKWASRPESMKLSGREREMDSSASSLRTQPNPQKLWEDIPELPPIHSSLAPPSGHMLGNENKTETDDNQFTKSHSRLSSQIQVVGNVGRLHGVTPVKLCRKELRQISALELSLRRSSLGVGIGSMAADSIEVSRKPRDLKT |

— paper doi:10.1101/2025.01.10.632296
